Measurements taken from patent US20240239799A1, “(S)-1-(5-((PYRIDIN-3-YL)THIO)PYRAZIN-2-YL)-4'H,6'H-SPIRO[PIPERIDINE-4,5'-PYRROLO [1,2-B]PYRAZOL]-4'-AMINE DERIVATIVES AND SIMILAR COMPOUNDS AS SHP2 INHIBITORS FOR THE TREATMENT OF E.G. CANCER” (C.N.C.C.S. S.C.A.R.L. COLLEZIONE NAZIONALE DEI COMPOSTI …, priority 2021, published 2024).
Read-outs that look alike come from different tables or passages of the source. Structures were worked out from names or drawings and are uncertain.

The chains behind the UniProt entries cited, without tags or fusion partners. Residues count along the entry.
UniProt Q06124, 1-525 limits assumed: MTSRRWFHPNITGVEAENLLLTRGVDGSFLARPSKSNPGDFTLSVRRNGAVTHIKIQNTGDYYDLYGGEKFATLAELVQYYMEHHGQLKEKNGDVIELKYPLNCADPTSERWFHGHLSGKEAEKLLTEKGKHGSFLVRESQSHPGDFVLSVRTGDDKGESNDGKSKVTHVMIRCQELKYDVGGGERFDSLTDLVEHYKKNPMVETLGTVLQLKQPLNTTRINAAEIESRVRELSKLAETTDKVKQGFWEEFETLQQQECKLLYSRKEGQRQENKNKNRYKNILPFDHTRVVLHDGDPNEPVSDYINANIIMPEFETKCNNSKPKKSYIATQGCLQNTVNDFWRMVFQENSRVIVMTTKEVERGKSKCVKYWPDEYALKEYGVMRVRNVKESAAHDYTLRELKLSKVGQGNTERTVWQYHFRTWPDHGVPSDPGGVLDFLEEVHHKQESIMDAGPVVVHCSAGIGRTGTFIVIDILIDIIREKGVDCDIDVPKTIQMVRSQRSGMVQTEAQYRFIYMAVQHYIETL

What was measured:
[1] = test system: phospho-ERK1/2 (Thr202/Tyr204) in KYSE-520 cells; assay: Phospho-ERK cellular assay (TR-FRET)
Description: ERK phosphorylation was detected using the “Advanced phospho-ERK1/2 (Thr202/Tyr204)” TR-FRET kit (Cisbio, Cat #64AERPEG/H), following the manufacturer reagents and instructions.
Briefly, 20.000/well KYSE-520 cells (DSMZ ACC 371) were plated in 6 μL RPMI-1640 (Invitrogen) growth medium, into 384 white low-volume high base TC microplates (Greiner). After an overnight incubation, cells were treated with DMSO serial diluted compounds and incubated for 2 h at 37° C. After incubation, 2 μL/well of 4X Lysis Buffer (Cisbio 64KL1FDF), were added and incubated with cells for 30 min on gentle shaking. Finally, lysates were added with 2 μL/well of Eu cryptate (donor) and D2 (acceptor) conjugated antibodies (as provided by the Cisbio kit #64AERPEG/H) diluted 1:100 in Detection Buffer (as provided by the Cisbio kit #64AERPEG/H). Plates were then sealed and incubated at rt in the dark. After an overnight incubation, the TR-FRET signal was detected on a suitable reader (Envision, PerkinElmer). The lower the TR-FRET signal the higher the higher the SHP2 inhibition in cells.
The activity of each compound dilution was calculated as percentage between vehicle DMSO treated cells and no cells, 0% inhibition and 100% inhibition respectively. The percentage activity is fitted against the compound dilutions with a four-parameter logistic regression. The inflection point (i.e. the concentration at which half-maximal inhibition is achieved) is the IC50.
Legend: “+” indicates IC50 equal or higher than 0.5 μM; “++” indicates IC50 less than 0.5 μM and higher or equal to 0.1p M; “+++” indicates IC50 less than 0.1p M.

[2] = biological target: SHP-2 enzyme (Met1-Leu525) (Homo sapiens, UniProt Q06124); assay: SHP2 inhibition enzymatic assay (DiFMUP substrate, IRS1 peptide activation); details: read-out: SHP2wt - IC50, 0.5 nM SHP-2, 500 nM IRS1 peptide, 75 μM DiFMUP
Description: The assay was performed as described in YP Chen et al, Nature (535)2016. Assay volume of 20 μL/well was assembled in 384 well black polystyrene low-binding microplates (Greiner), using the following buffer: 60 mM HEPES pH 7.2, 75 mM NaCl, 75 mM KCl, 1 mM EDTA pH 8, 0.05% tween-20, 5 mM DTT. The SHP-2 enzyme (synthetized by Origene, Met1-Leu525, cat #TP750155) was used at a final concentration of 0.5 nM. The enzyme was activated by 500 nM IRS1 peptide (sequence: H2N-LN(pY)IDLDLV(dPEG8)LST(pY)ASINFQK-amide SEQ ID No. 1) and incubated with 75 μM DiFMUP (Sigma) as substrate.
Briefly, DMSO serially diluted testing compounds were transferred to the bottom of the assay plate. SHP2 was then added together with the IRS1 peptide 30 min post incubation, the DiFMUP substrate was added to the reaction and incubated 30 min at rt. Finally 5 μL of 160 μM bpV (Potassium bisperoxo[1,10-phenanthroline]oxovanadate[V], Sigma) were added to stop and quench the reaction. The fluorescence was detected by a microplate reader (Envision, PerkinElmer) according to the DiFMUP excitation and emission wavelength. The lower the fluorescence the higher the SHP2 inhibition.
The activity of each compound dilution was calculated as percentage of inhibition between vehicle (DMSO, 0% inhibition) and no enzyme (100% inhibition). The percentage inhibition is fitted against the compound dilutions with a four-parameter logistic regression. The inflection point (i.e. the concentration at which half-maximal inhibition is achieved) is the IC50.
Legend: A indicates IC50 less or equal to 0.05 μM; B indicates IC50 greater than 0.05 μM and lower or equal to 0.3 μM; C indicates IC50 higher than 0.3 μM.

[3] = biological target: SHP2 (Avi-G4SG4S-PTPN11(1-525)) (Homo sapiens, UniProt Q06124); assay: Binding kinetic assay by surface plasmon resonance (SPR); details: Biacore T200, single cycle kinetic, 1:1 Langmuir binding model, tested form: TFA
[4] = read-out: pERK IC50, 2 h at 37° C., tested form: TFA

Row | Compound | IC50 ([1]; read-out: pERK IC50, 2 h at 37° C., tested form: trifluoroacetate) | IC50 ([2]; tested form: trifluoroacetate) | IC50 [1, 4] | IC50 ([2]; tested form: TFA) | k off SPR ([3]; triplicate) | Residence time 1/koff SPR [3]
1 | CC(=O)N1CC(F)(F)c2c(Sc3ncc(N4CCC5(CC4)Cn4nccc4[C@H]5N)nc3N)cccc21 | < 0.1 µM | < 0.05 µM |  |  |  | 
2 | N[C@@H]1c2ccnn2CC12CCN(c1cnc(Sc3ccn4cc(NC(=O)C(F)(F)F)nc4c3Cl)cn1)CC2 |  |  | < 0.1 µM | < 0.05 µM |  | 
3 | NC(=O)c1cn2ccc(Sc3cnc(N4CCC5(CC4)Cn4nccc4[C@H]5N)cn3)c(Cl)c2n1 |  |  | < 0.1 µM | < 0.05 µM |  | 
4 | Nc1nccc(Sc2cnc(N3CCC4(CC3)Cn3nccc3[C@H]4N)n3ccnc23)c1Cl |  |  | < 0.1 µM | < 0.05 µM | 0.000554 s⁻¹ | 1805 s
